The record followed here is patent publication US20240352477A1 (ACADEMIA SINICA, published 2024).

Amino acid sequences for entries named in this document (tags omitted). A change or cut given only in a name is not applied to a line headed by its entry.
UniProt Q2RBF0: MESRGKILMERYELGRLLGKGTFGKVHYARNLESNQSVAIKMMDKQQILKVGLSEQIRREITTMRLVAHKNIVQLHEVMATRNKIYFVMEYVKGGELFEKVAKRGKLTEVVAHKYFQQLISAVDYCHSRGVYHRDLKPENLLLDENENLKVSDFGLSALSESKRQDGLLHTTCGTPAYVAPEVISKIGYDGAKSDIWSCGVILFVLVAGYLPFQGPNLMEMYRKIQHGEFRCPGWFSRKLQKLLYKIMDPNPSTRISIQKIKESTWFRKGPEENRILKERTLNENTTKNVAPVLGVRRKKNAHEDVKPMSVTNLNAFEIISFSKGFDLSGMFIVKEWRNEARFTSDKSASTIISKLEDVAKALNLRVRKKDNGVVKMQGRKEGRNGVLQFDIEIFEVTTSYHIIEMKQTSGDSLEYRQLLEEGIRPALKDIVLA

Assay [1] concerns the target CIPK15-HA (Ubi:CIPK15-HA) (Oryza sativa (rice)) (UniProt Q2RBF0). Description: co-IP with GFP-Trap from co-transfected rice protoplasts (FIG. 3e).
Assay [2] has the same target. Description: co-IP with GFP-Trap from co-transfected rice protoplasts, immunoblot. (In general: A western blot detects proteins with antibodies after separation by electrophoresis.)

No constants are given. Whether binding was seen depends on the method and setting. Binding seen in cells or lysates may run through a third protein. Some entries that bind do so weakly or less than the wild type. Tags and fused reporters may be left off the sequences shown.

B1: VDAC1-GFP (Ubi:VDAC1-GFP) (other, rice, UniProt Q6K548 2-274, looked up)
chain: VGPGLYPEIGKKARDLLYRDYQTDHKFTLTTYTSNGVAITATSTKKADLIFGEIQSQIKNKNITVDVKANSDSNVVTTVTVDELTPGLKSILSFAVPDQRSGKFELQYSHDYAGVSASIGLTASPVVNLSSVFGTKALAVGADVSLDTATGNLTKYNAGLSFSNDDLIASLNLNNKGDSLTASYYHIVNHSATAVGAELTHSFSSNENSLTFGTQHTLDPLTVVKARFNNSGKASALLQHEWRPKSVWTISAEVDTKAIDKSSKVGIAVALKP
notes: Expressed transiently in rice protoplasts and pulled down with GFP-Trap; not shown: GFP reporter (pUbi:ccdB-GFP vector)
As to B1, the binding entry in assay [1] and in assay [2] was “binds” throughout.
